Source: article PMC7615741

T1: AtEH1FL-GFP (A. thaliana) (UniProt Q9LM78)
T1 sequence: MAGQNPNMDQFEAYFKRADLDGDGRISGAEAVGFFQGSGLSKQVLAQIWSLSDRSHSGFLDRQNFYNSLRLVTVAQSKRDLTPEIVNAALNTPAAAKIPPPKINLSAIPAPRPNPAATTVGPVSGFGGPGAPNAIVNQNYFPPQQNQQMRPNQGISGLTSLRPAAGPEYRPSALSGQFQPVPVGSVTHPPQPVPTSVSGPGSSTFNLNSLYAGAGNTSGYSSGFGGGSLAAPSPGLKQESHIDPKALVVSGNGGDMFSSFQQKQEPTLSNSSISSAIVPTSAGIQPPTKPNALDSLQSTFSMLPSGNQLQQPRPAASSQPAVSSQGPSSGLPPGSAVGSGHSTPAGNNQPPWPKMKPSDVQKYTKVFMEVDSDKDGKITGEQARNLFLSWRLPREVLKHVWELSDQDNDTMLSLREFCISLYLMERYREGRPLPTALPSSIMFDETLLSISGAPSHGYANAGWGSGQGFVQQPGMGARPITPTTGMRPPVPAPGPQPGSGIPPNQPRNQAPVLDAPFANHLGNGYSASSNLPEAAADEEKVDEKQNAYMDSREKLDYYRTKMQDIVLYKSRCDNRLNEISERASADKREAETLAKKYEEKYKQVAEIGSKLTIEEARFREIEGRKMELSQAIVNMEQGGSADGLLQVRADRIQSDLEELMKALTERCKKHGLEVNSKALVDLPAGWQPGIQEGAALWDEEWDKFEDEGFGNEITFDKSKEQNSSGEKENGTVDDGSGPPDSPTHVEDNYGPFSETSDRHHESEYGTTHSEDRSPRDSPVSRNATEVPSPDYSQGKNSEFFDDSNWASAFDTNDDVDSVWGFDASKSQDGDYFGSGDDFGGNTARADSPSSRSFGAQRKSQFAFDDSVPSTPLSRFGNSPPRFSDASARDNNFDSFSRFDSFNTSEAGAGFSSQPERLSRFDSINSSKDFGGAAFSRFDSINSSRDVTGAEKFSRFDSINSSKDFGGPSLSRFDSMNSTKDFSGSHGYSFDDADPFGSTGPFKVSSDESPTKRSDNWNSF


What was measured:
[1] = molecular target: T1, AtEH1FL-GFP (A. thaliana); test: partitioning assay (confocal microscopy of condensates in cells); scaffold AtEH1-GFP (FL or ΔIDR3) co-expressed with client-mScarlet in N. benthamiana epidermal cells; partitioning coefficient at AtEH1 positive foci (MitoTally script)
[2] = molecular target: AtEH1_(ΔIDR3)-GFP (A. thaliana); test: as above

Molecule	binding [1]	binding [2]
PICALM3-mScarlet (A. thaliana)	no binding	–
AUXL1-mScarlet (protein, UniProt Q9SU08 1-904) MDDFTGLLARDFGLKPQGKSAPMASQSNSSAADFNTFASSYSFATAAGKKSDSLPVFDDPGRDGDDLLFKDVFSGPPPPKYGSSSGDSRSPSAPAFDYDAMFKEPKSKSASSMPVYDKPVYDDEDVFESIPELKIPSTSSQSARFENVFSSISSSPTKHRKQNSSPFDDLMGNNLGKKGADSDREEKGSSIFDDLIPGFGRTSSPPSKRTTSETTNQSEKAPYRTAETSSNVEEDPFVVLEESESTPREPSRTDPLDDIGKFNSRKTDHSSVHGGVFVDIDPLDNLGKPGPDMNSKGKSHLRPPGNISGSQSPPVESPGSYHSKKVSFEDFLEPHNMSTPPPTNSNGSFESSDDVWLTVSEIPLFTQPTSAPPPTRPPPPRPTRPIKKKVNEPSIPTSAYHSHVPSSGRASVNSPTASQMDELDDFSIGRNQTAANGYPDPSSGEDSDVFSTAAASAAAMKDAMDKAEAKFRHAKERREKENLKASRSREGDHTENYDSRERELREKQVRLDRERAEREAEMEKAQEREKEEREREQKRIERERERLVARQAVERATREARERAATEAHAKVQRAAVGKATDARERAERAAVQRAHAEARERAAAGARDKAAKAAAEAREKAEKAAAEAKERANAEAREKETRVRAERAAVERAAAEARGRAAAQAKAKQQQENTNDLDSFFSSISRPNSAPRQRTNPLDPFQDSWNKGGSFESSRESLRVPPGQPENLRKTSSVTNIVDDLSSIFGASASQSGGFQDVDGETEERRRARLERHQRTQERAAKALAEKNERDLQVQREQVEKDRIGVTLDVEIKRWGAGKEGNLRALLSTLQYVLWPECGWQPVSLTDLITAASVKKVYRKATLCIHPDKVQQKGANLQQKYIAEKVFDMLKEAWNKFNSEELF	–	binds

The remaining lines, values ahead:

binding [1]	binding [2]	Molecule
–	binds	TOL6-mScarlet (protein, UniProt O80910 1-671) MASSSASATVAVDKATSDLLLGPDWTTNMEICDSVNSLHWQAKDVVKAVKKRLQHKSSRVQLLALTLLETLVKNCGDYLHHQVAEKNILGEMVKIVKKKADMQVRDKILVMVDSWQQAFGGPEGKYPQYYWAYDELRRSGVEFPRRSPDASPIITPPVSHPPLRQPQGGYGVPPAGYGVHQAGYGVPQAGYGIPQAGYGVPQAGYGIPQVGYGMPSGSSRRLDEAMATEVEGLSLSSIESMRDVMDLLGDMLQAVDPSDREAVKDEVIVDLVERCRSNQKKLMQMLTSTGDDELLGRGLDLNDSLQILLAKHDAIASGSPLPVQASGSPLSVQASKPADSSPKSSEAKDSSSIAGSSSPIPATVSTGKSPIDEEYEEEEDEFAQLARRHSKPPASVTTDPTSLESHNAASNALALALPDPPPPVNTTKEQDMIDLLSITLCTPSTPPAPSSQPSPPPPAGSDQNTHIYPQPQPRFDSYVAPWAQQQQPQQPQAQQGYSQHQQHQQQQGYSQPQHSQQQQGYSQLQQPQPQQGYSQSQPQAQVQMQPSTRPQNPYEYPPPPWASTSANAYYTPRANASASYTDTSALAGRSLQQSNSFPTRAGDPQATSTASNSGVSVGQKPFVPSYRLFEDLDVFGSADGKHNKPANSSNGSQNLSGSQTQQSMIGGRKMI
–	binds	TOL9-mScarlet (protein, UniProt Q8L860 1-675) MVNAMVERATSEMLIGPDWAMNLEICDMLNSDPAQAKDVVKGIKKRIGSRNPKAQLLALTLLETIVKNCGDMVHMHVAEKGVIHEMVRIVKKKPDFHVKEKILVLIDTWQEAFGGPRARYPQYYAGYQELLRAGAVFPQRSERSAPVFTPPQTQPLTSYPPNLRNAGPGNDVPEPSAEPEFPTLSLSEIQNAKGIMDVLAEMLSALEPGNKEDLKQEVMVDLVEQCRTYKQRVVHLVNSTSDESLLCQGLALNDDLQRVLTNYEAIASGLPGTSSQIEKPKSETGKSLVDVDGPLIDTGDSSNQANGATSSSGNGVLNQLALPAPPVTNGSANSKIDLLSGDDLALVPVGPPQPASPVASDQNALALIDMFSDNTNNPSPATAPSGNPAQNIPLNPQGHQQPNSQAGEAGLQQSNGFAPQVGYSQFEQPSYGQGVSSPWSSQPAQQPVQPSYGAQDSTAFPPPPWEAQLQDYSPSAESGSPFSPGMHPTQTAFTHAQPVNNNNPYPQIPQTGPPVNNNSPYAQMPQTGQAVANISPYPQIPQNGVYMPNQPNQALGSGYQPQQQQQQQMMMAQYYAQQQQLQQQQQQQAYGNQMGGYGYGYNQQQQGSSPYLDQQMYGLSMRDQTSHQVASSSSTTSYLPPMKPKNKPEDKLFGDLVDISKFKPTKPTSGRAGTM

Results are given in words; binding and its absence hold for the method and conditions named. For some of these results: Binding can be weak; no strength is given. For some of these results: Tags and fused reporters may be left off the sequences shown.
